{"sequences": {"note": "Amino acid sequences for entries named in this document (tags omitted).", "UniProt Q9Y572": "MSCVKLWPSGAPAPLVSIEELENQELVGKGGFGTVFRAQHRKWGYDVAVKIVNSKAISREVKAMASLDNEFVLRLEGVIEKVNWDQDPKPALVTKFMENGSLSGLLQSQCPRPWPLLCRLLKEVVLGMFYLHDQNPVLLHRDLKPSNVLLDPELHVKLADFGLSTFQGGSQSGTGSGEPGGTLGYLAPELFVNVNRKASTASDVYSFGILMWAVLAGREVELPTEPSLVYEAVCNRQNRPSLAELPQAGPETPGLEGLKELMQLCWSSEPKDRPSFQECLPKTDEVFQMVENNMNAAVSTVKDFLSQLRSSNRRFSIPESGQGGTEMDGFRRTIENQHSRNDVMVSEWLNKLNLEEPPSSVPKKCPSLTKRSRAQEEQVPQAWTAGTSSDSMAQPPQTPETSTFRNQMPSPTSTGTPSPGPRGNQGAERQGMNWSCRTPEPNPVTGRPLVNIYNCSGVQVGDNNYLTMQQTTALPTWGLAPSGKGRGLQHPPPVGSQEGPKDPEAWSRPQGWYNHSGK", "UniProt Q99873": "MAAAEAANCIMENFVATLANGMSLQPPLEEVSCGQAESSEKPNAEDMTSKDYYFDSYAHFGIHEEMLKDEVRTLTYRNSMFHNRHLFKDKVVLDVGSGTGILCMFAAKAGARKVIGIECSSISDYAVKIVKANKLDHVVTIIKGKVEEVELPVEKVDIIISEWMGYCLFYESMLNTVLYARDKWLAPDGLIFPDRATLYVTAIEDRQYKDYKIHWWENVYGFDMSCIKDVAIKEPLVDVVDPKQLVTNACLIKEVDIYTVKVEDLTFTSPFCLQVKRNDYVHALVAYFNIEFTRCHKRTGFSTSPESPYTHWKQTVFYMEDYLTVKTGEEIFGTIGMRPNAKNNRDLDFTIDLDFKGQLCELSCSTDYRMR"}, "source": "paper PMC10067857", "molecular_target": "RIP3 (receptor interacting protein kinase 3), endogenous in HT29 cells (human (endogenous in HT29)) (UniProt Q9Y572)", "assay": "co-IP; endogenous proteins in HT29 cells; lysis in RIPA buffer, primary antibody overnight at 4 °C, protein A/G agarose beads, immunoblot", "note": "These are yes or no findings as the source states them, for the method shown. In cells and extracts the contact can be indirect. Some entries that bind do so weakly or less than the wild type.", "data": [{"substance": "PRMT1 methyltransferase, endogenous in HT29 cells (from UniProt Q99873 1-371) (enzyme)", "values": [{"measurement": "binding", "value": "binds"}]}]}
